# Results deposited as PubChem BioAssay AID1224828 (NIAID, 2016).
# Screen: 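Find genes required for NF-kappaB p65 moving into the nucleus after LPS in mouse macrophages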 (primary screen)
# System: mouse RAW264.7 G9 macrophage reporter cells (GFP-p65, Tnf promoter-mCherry)
# Knock-down reagent: siRNA pool against mouse genes, 100 nM
# Time to read-out: 2 days siRNA transfection, then 40 min LPS before fixation
# Conditions: LPS (Salmonella minnesota R595) at 10 ng/ml
# Measurement: 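Microscopy ratio of nuclear to perinuclear-ring GFP-p65 signal, scaled to the plate median; gene score is the average of two replicate robust z-scores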
# Reading the numbers: p65 translocation robust z-score: higher = more nuclear NF-kappaB p65 after LPS than the plate median; nuclear/cytoplasmic p65 ratio: higher = more nuclear NF-kappaB p65
# Active means: 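Active if robust z is above 3.3 (negative regulators) or below -1.56, the Tlr4 control median (positive regulators); activity score 50 or more; control wells not called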
# Meaning of the calls: active = hit (p65 shift raised or lowered); inactive = no clear change
# In all, the deposit lists about 17,000 reagents; below is an unselected part. 762 of all reagents (4.5%) count as active. 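Active calls include both raised and lowered p65 entry, mostly lowered; wells with fewer than 50 cells lack a z-score.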 The raw values are shown without normalisation. Reagent sequences are not shown.
gene symbol,p65 translocation robust z-score,"nuclear/cytoplasmic p65 ratio, rep 1","nuclear/cytoplasmic p65 ratio, rep 2",low cell count flag,outcome
Apoc3,-0.73,1.53,1.49,enough cells to score,inactive
Orm1,-0.06,1.44,1.23,enough cells to score,inactive
Tmem185b,1.08,1.49,1.66,enough cells to score,inactive
Ganab,-0.64,1.57,1.31,enough cells to score,inactive
Selenon,0.63,1.48,1.34,enough cells to score,inactive
Crip3,2.28,1.84,2.24,enough cells to score,inactive
Naa80,0.2,1.55,1.29,enough cells to score,inactive
Odf2,1.77,1.9,1.86,enough cells to score,inactive
Ube2j2,0.66,1.63,1.57,enough cells to score,inactive
Bsg,0.78,1.74,1.72,enough cells to score,inactive
Rab15,0.1,1.44,1.18,enough cells to score,inactive
Gulo,-2.28,1.95,1.23,enough cells to score,active
Tmem208,-0.85,1.4,1.31,enough cells to score,inactive
Sdr9c7,0.19,1.47,1.22,enough cells to score,inactive
Bnc1,-0.57,1.57,1.49,enough cells to score,inactive
Il34,-1.91,1.14,1.06,enough cells to score,active
Gsn,-1.03,1.31,1.22,enough cells to score,inactive
5730405M06RIK,1.27,1.49,1.67,enough cells to score,inactive
Pilra,,1.51,1.19,fewer than 50 cells per well; well left out of scoring,inactive
Tcl1b4,,0,1.25,fewer than 50 cells per well; well left out of scoring,inactive
Rcc2,7.23,1.24,2.43,enough cells to score,active
Fkbp8,-0.5,1.32,1.35,enough cells to score,inactive
C1rl,,1.42,1.49,fewer than 50 cells per well; well left out of scoring,inactive
Syngr3,,1.71,1.02,fewer than 50 cells per well; well left out of scoring,inactive

Sorted by “nuclear/cytoplasmic p65 ratio, rep 2” (high to low): some entries from above
gene symbol,p65 translocation robust z-score,"nuclear/cytoplasmic p65 ratio, rep 1","nuclear/cytoplasmic p65 ratio, rep 2",low cell count flag,outcome
Rcc2,7.23,1.24,2.43,enough cells to score,active
5730405M06RIK,1.27,1.49,1.67,enough cells to score,inactive
Fkbp8,-0.5,1.32,1.35,enough cells to score,inactive
Tcl1b4,,0,1.25,fewer than 50 cells per well; well left out of scoring,inactive
Gsn,-1.03,1.31,1.22,enough cells to score,inactive
Pilra,,1.51,1.19,fewer than 50 cells per well; well left out of scoring,inactive

Next results follow:
gene symbol,p65 translocation robust z-score,"nuclear/cytoplasmic p65 ratio, rep 1","nuclear/cytoplasmic p65 ratio, rep 2",low cell count flag,outcome
Il22b,-0.97,1.35,1.25,enough cells to score,inactive
Rfc4,-0.19,1.53,1.45,enough cells to score,inactive
Or4c125,-1.07,1.56,1.37,enough cells to score,inactive
Serpina9,1.28,1.57,1.14,enough cells to score,inactive
Gspt2,-0.29,1.67,1.44,enough cells to score,inactive
Ankmy1,,1.18,1.46,fewer than 50 cells per well; well left out of scoring,inactive
Krtap4-13,,1.39,1.23,fewer than 50 cells per well; well left out of scoring,inactive
Lca5,,1.46,1.46,fewer than 50 cells per well; well left out of scoring,inactive
Idh3b,-0.34,1.53,1.36,enough cells to score,inactive
Rrp1b,,1.31,1.18,fewer than 50 cells per well; well left out of scoring,inactive
Coro2a,0.47,1.44,1.52,enough cells to score,inactive
Klhdc2,-1.4,1.31,1.28,enough cells to score,inactive
Bcl7c,1.84,1.72,1.73,enough cells to score,inactive
Sox2ot,-0.54,1.48,1.47,enough cells to score,inactive
Tectb,1.66,1.64,1.32,enough cells to score,inactive
Cd300a,-0.12,1.63,1.45,enough cells to score,inactive
